Test results taken from PubChem BioAssay AID2284174 (EPA ToxCast).
All entries are inconclusive by the source's own rule. Clear calls are listed elsewhere. How the source made its calls: active means hit-call score of the fitted dose curve at least 0.9, where 1 is the maximum; inconclusive means response in the unintended direction; inactive means score below 0.9. Where the call is inconclusive, the potency comes from a doubtful curve fit.

Protein sequences, listed by entry. Tags and fused reporters are not part of them.
UniProt P70606, whole entry, looked up: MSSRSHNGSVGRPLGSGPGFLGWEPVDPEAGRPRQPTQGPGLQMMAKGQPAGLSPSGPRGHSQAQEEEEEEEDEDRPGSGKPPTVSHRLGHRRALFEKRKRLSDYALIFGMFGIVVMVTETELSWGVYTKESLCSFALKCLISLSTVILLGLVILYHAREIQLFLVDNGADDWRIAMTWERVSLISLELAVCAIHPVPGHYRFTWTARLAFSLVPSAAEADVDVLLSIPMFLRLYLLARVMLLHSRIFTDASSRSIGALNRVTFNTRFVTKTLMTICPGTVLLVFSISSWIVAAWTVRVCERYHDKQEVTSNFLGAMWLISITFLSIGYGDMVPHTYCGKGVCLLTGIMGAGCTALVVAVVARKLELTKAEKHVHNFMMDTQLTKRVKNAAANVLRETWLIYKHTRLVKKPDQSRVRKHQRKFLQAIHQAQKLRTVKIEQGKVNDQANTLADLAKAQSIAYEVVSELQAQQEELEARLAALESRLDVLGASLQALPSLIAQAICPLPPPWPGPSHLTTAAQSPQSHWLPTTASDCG

What follows are molecules tested against rat SKCa (Non-Selective), Kcnn1 (gene 54261) (UniProt P70606) (assay: ERF_FR_IC_rKCNN1: Eurofins (ERF) Potassium Ion Channel [125I] Apamin Binding LeadHunter Assay for rat SKCa (Non-Selective)).
Method: ERF_FR_IC_rKCNN1 is a biochemical, single-readout assay that uses extracted gene-proteins in a cell-free assay. Measurements were taken 1 hour after chemical dosing in a 96-well plate. See SKCa (Non-Selective) Rat Potassium Ion Channel [125I] Apamin Binding Assay, Cerep.ERF_FR_IC_rKCNN1 is an assay component calculated from the ERF_FR_IC_rKCNN1 assay. It is designed to measure radioligand binding using a type of binding reporter as detected by scintillation counting with radiometry technology.Data from the assay component ERF_FR_IC_rKCNN1 was analyzed at the assay endpoint, ERF_FR_IC_rKCNN1, in the positive analysis fitting direction relative to DMSO as the negative control and baseline of activity. Using a type of binding reporter, loss-of-signal activity can be used to understand changes in binding as they relate to gene Kcnn1. To generalize the intended target to other relatable targets, this assay endpoint is annotated to the ion channel intended target family, where the subfamily is voltage gated (Potassium).
This assay measures binding of [125I]apamin to small conductance calcium-activated potassium channel sites [SKCa]. […] Membranes are filtered and washed 3 times and the filters are counted to determine [125I]apamin specifically bound. […]
In the case of `O=C(/C=C/c1ccc(O)cc1)CC(=O)/C=C/c1ccc(O)cc1`, the AC50 is reported as inconclusive: 0.3 nM.
